Source: paper PMC7417555, “Comparative structural analyses and nucleotide-binding characterization of the four KH domains of FUBP1”
The exact form of at least one protein or probe is not confirmed. The comparison behind a weaker result is the experiment's own reference, which may not be listed here. Where a protein sequence is shown, tags need not be part of it.

Experiments:
[1] = molecular target: T1, FUBP1 KH4 (UniProt Q96AE4); assay: EMSA; settings: slight shift; native PAGE: 200 uM protein, 5x ssDNA, 25 mM HEPES pH 7.5, 50 mM NaCl, 0.5 mM TCEP, 4 C, 0.5x TBE (KH4 0.5x TAE); recombinant protein; single-stranded DNA
T1 sequence (looked up, limits assumed): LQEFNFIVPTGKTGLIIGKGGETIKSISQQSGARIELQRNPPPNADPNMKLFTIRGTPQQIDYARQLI

[2] = molecular target: T2, FUBP1 KH2 (UniProt Q96AE4); assay: EMSA; settings: slight shift; native PAGE: 200 uM protein, 5x ssDNA, 25 mM HEPES pH 7.5, 50 mM NaCl, 0.5 mM TCEP, 4 C, 0.5x TBE (KH4 0.5x TAE); recombinant protein; protein details: His6 removed by TEV; single-stranded DNA
T2 sequence (looked up, limits assumed): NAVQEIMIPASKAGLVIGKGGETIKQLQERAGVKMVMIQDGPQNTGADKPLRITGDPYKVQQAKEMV

“TTTGTGTTAA [FUSE fragment 8, 10-mer (native PAGE)]”: binds more weakly [1]; binds more weakly [2].
